The values below come from article doi:10.1101/2024.08.19.608612.

Chains of the proteins cited; added tags and fusions are not shown.
UniProt Q9HC16: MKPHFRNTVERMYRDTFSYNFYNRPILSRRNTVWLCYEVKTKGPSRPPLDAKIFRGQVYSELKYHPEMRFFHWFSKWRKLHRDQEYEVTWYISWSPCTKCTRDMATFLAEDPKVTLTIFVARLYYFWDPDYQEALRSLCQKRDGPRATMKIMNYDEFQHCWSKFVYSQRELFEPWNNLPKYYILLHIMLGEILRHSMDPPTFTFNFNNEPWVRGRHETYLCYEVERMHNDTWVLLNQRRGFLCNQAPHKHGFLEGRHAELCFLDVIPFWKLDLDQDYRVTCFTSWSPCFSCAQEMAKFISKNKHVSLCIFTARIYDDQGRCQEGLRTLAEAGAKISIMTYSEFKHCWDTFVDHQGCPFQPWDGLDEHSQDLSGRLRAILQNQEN
UniProt O43143: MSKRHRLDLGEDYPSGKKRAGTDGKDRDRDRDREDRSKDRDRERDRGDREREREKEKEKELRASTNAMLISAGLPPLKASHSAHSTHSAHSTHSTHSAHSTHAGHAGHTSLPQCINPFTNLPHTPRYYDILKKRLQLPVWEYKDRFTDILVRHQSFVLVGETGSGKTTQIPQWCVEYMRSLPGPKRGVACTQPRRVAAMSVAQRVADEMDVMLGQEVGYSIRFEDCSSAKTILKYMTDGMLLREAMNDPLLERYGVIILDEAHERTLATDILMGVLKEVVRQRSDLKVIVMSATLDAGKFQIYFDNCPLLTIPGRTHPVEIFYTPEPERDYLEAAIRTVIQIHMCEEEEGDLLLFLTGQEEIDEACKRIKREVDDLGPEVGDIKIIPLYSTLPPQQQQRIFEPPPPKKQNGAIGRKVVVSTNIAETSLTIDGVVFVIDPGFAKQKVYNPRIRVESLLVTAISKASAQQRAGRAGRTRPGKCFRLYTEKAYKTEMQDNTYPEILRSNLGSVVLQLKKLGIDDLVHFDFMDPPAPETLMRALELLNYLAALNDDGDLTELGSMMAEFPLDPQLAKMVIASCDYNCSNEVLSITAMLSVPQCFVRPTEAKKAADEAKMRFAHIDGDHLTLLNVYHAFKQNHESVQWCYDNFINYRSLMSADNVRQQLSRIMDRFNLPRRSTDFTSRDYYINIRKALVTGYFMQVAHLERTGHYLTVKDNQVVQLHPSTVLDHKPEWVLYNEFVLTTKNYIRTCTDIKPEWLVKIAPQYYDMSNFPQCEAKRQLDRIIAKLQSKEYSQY
UniProt P67809: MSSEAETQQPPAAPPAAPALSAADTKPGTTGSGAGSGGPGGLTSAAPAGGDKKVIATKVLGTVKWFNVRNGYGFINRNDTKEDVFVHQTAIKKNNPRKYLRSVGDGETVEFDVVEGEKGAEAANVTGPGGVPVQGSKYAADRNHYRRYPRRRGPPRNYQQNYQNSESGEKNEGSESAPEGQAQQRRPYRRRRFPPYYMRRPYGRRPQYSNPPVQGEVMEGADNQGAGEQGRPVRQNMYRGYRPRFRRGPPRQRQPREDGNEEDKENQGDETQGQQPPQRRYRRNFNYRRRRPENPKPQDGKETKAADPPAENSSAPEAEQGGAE

The target in experiment [1] is FLAG-tagged human APOBEC3G (human) (UniProt Q9HC16). Put plainly: affinity purification with mass spectrometry.
Experiment [2] deals with T1, FLAG-tagged mouse APOBEC3 (pcDNA-FLAG-mA3) (mouse) (UniProt Q99J72).
T1 sequence: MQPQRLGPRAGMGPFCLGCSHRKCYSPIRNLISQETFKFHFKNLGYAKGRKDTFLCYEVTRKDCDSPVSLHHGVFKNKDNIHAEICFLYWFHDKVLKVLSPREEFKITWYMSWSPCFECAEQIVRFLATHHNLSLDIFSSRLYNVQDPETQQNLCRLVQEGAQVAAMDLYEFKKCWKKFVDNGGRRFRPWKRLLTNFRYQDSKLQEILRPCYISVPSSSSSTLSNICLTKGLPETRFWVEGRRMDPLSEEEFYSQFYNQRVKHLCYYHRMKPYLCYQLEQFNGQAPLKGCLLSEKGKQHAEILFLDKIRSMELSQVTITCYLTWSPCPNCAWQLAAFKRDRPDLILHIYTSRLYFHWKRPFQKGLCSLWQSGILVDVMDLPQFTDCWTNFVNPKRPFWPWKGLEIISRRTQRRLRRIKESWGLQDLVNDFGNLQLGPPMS
Put plainly: affinity purification with mass spectrometry.

No constants are given. Whether binding was seen depends on the method and setting. Binding seen in cells or lysates may run through a third protein. Here binding means that the protein was enriched with, or labelled near, the bait; the list need not be complete. For some assays here: Tags and fused reporters may be left off the sequences shown.

Consider “hnRNPK, endogenous in 293T cells (from UniProt P61978 1-463)”, for which the binding result in experiment [1] and in experiment [2] was “binds” throughout. With “DEAH-box helicase 15 (DHX15), endogenous in 293T cells (from UniProt O43143 1-795)”, in experiment [2], the binding entry is given as “binds”.

On to “Y-box binding protein 1 (YB1), endogenous in 293T cells (from UniProt P67809 1-324)”, for which the binding result in experiment [1] and in experiment [2] was “binds” in each case.
